# From PubChem BioAssay AID1487 (National Center for Advancing Translational Sciences (NCATS), 2009)
# In all, about 200,000 compounds went through this assay and about 25 (0.01%) were called active. The shares of active, inactive and inconclusive entries below differ from those in the screen. Calls come from the whole dose curve; as a rule, active = well fitted inhibition curve with a large enough effect in the signal ratio, with a control signal flat (not every such curve was filed as active); inconclusive = small, poorly fitted or top-dose-only effect, or effect the other way, or a change in a side signal; inactive = flat fitted curve, though single readings scatter; the % refers to the signal ratio. Where the call is inconclusive, the potency comes from a doubtful curve fit.
# Assay: qHTS Assay for Modulators of Lamin A Splicing
# Conditions: HeLa LMNA splicing GFP/RFP minigene ratio, 48 h; ratio change, negative = inhibition: at 46.1 µM (top of the series) unless noted
# Method in brief: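 Read-out is the ratio of GFP to DsRed2 object intensity, acquired by 488 nm laser-scanning cytometry on HeLa lamin A-EGFP minigene reporter cells. Compound incubation 48 hrs at 37 °C in Opti-MEM with 2% FBS; DMSO 0.5% final.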
# % is set by controls: 0 for no effect and ±100 for the full control effect; potency is the fitted concentration of half-maximal effect.
SMILES,"ratio change, negative = inhibition",Potency
Nc1nnc(SCC(=O)c2ccc([N+](=O)[O-])cc2)s1,inconclusive: -14.8% [at 46 µM],–
CC1(c2ccc3noc(-c4ccc(F)cc4)c3c2)OCCO1,–,"inconclusive: 20 µM [falling, single point]"
CCOC(=O)Nc1cccc(C(=O)O)c1,inactive: 3.21%,–
NNC(=O)C1CCCN1S(=O)(=O)c1ccc(Cl)cc1 (centres undefined),inconclusive: 24.5% [at 46 µM],–
CC(=O)Oc1ccc2ccccc2c1C(NC(=O)Cc1ccccc1)c1ccccc1 (centres undefined),inconclusive: -32.8%,–
Cc1ccccc1OCC(=O)NNC(=S)NC(=O)c1ccccc1[N+](=O)[O-],–,"inconclusive: 35.5 µM [falling, single point]"
O=C(NCc1ccccc1Cl)c1ccc(NC(=O)c2nsc3ccccc23)cc1,inconclusive: 8.9% [at 46 µM],–
O=C1CCCc2c1sc1nc3n(c(=O)c21)CCCCC3,inactive: -1.93%,–
O=C(CSc1nnc(-c2ccncc2)n1-c1ccccc1)Nc1ccc(Br)cc1,inactive: 1.65% [at 46 µM],–
O=C1/C(=C\c2ccc(-c3ccccc3[N+](=O)[O-])o2)C(c2ccccc2)=NN1c1ccccc1,–,"inconclusive: 35.5 µM [falling, single point]"
COc1cccc(/C=N/NC(=O)CSc2nnc(C)n2-c2ccccc2)c1O,–,"inconclusive: 35.5 µM [inhibitor, single point]"
Cc1cccc(/C=N\Nc2cn[nH]c(=O)c2Cl)c1,–,"inconclusive: 7.08 µM [cytotoxic, partial curve]"
NC(=O)C1CCN(C(=O)COc2ccc(S(=O)(=O)NCc3ccccc3)cc2Cl)CC1,inconclusive: 18.5%,–
CC(C)(C)Nc1nc(NN)nc(NC(C)(C)C)n1,inconclusive: -30.8%,–
O=C(CSc1nc2cc(Cl)ccc2o1)Nc1ccc(N2CCOCC2)cc1,inconclusive: -8.9%,–
Cc1ccc(C)c(-n2nnnc2SCC(=O)NNC(=O)c2ccco2)c1,inactive: -4.48% [at 46 µM],–
CCOc1ccc2nc(NCCNC(=S)NCCCN(C)C)c(C#N)cc2c1,inconclusive: -15.9% [at 46 µM],–
COc1ccc(Nc2ncnc3c2nc2n3CCCC2)cc1Cl,–,"inconclusive: 20 µM [inhibitor, single point]"
Cc1cccc(/C=C(\C(=O)C(=O)O)c2ccc3ccccc3n2)c1,–,"inconclusive: 8.91 µM [falling, partial curve]"
CCCS/C(N)=N/N=C/c1cc(C)ccc1O,inconclusive: -4.56%,–
O=C(c1ccc(Cl)c(Cl)c1)N1CCC(=O)N(C(COCc2cccc(C(F)(F)F)c2)Cc2ccccc2)CC1 (centres undefined),inconclusive: -40.9%,–
c1ccc(CSc2nnc(-c3ccncc3)o2)cc1,inconclusive: 31%,–
COc1cccc(CNC(=O)Cn2c(SCC(=O)Nc3ccc(C)c(C)c3)nc3ccccc32)c1,inconclusive: 41.6% [at 46 µM],–
CCOCCc1nnc(NC(=O)CN2C(=O)c3ccccc3C2=O)s1,inactive: -1.21%,–
CC1CN(C(=O)N2c3ccccc3Sc3ccccc32)CC(C)O1 (centres undefined),–,"inconclusive: 35.5 µM [inhibitor, single point]"
O=C(Nc1ccc(-n2cccc2)cc1)C1CC1,inactive: 15.2% [at 46 µM],–
CCOC(=O)c1c(C)oc2nc(C)nc(N3CCN(c4cccc(C)c4C)CC3)c12,inactive: -15.6% [at 46 µM],–

# Record cards, from the list above. Order of values: ratio change, negative = inhibition | Potency
# O=C(CSc1nnc(-c2ccncc2)n1-c1ccccc1)Nc1ccc(Br)cc1 in the list: inactive: 1.65% [at 46 µM] | –
# CCOc1ccc2nc(NCCNC(=S)NCCCN(C)C)c(C#N)cc2c1 in the list: inconclusive: -15.9% [at 46 µM] | –
# CCOC(=O)c1c(C)oc2nc(C)nc(N3CCN(c4cccc(C)c4C)CC3)c12 in the list: inactive: -15.6% [at 46 µM] | –

# Continuation.

SMILES,"ratio change, negative = inhibition",Potency
Cc1cccc(N2C(=O)CC(N3CCN(Cc4ccc5c(c4)OCO5)CC3)C2=O)c1 (centres undefined),inactive: 0.104%,–
CC(C)C1O/C(=N/C(=O)Nc2ccc(Cl)c(Cl)c2)NC1=O (centres undefined),–,"inconclusive: 35.5 µM [fluorescent, single point]"
O=C(COC(=O)c1cc(=O)c2ccccc2o1)NC1CCCCC1,inconclusive: 24% [at 46 µM],–
COc1cccc(C(C(=O)NC2CCCCC2)N(CCN2CCOCC2)C(=O)C2COc3ccccc3O2)c1 (centres undefined),inconclusive: 10.9% [at 46 µM],–
COc1ccc(C2CC(=O)Nc3sc(=N)c4c(N)c(C#N)c(N)nc4c32)cc1OC (centres undefined),inconclusive: 1.57%,–
O=C(CN1CCN(c2cccc(Cl)n2)CC1)N1CC(O)CO1 (centres undefined),inconclusive: 16.2% [at 46 µM],–
COc1cc(/C=N/NC(=O)c2ccc(N(C)S(=O)(=O)c3ccccc3)cc2)cc(OC)c1OC,–,"inconclusive: 35.5 µM [falling, single point]"
CCN(CC)Cc1cc(Nc2ccnc3cc(Cl)ccc23)ccc1O,inconclusive: -23.6%,–
COc1cccc(-n2c(SCC(=O)NCCC3=CCCCC3)nc3n[nH]c(C)c3c2=N)c1,inconclusive: 32.1%,–
COc1ccc(OC)c(C(=O)C2COC(=O)C2)c1 (centres undefined),–,"inconclusive: 11.2 µM [falling, partial curve]"
COC(=O)c1cc2oc(C)cc2n1Cc1ccc(C)cc1,–,"inconclusive: 35.5 µM [falling, partial curve]"
CCCCC/C=C\C[C@H](O)/C=C/c1cccc(C[C@H](O)CCCCO)n1,inconclusive: 56.2% [at 46 µM],–
O=S(=O)(c1cccc(-c2nc3ccccc3s2)c1)N1CCCC1,inconclusive: -36.8%,–
Cn1nc(-c2ccc(C(=O)Nc3ccc(OC(F)(F)F)cc3)cc2)c2ccccc2c1=O,inconclusive: -4.91% [at 46 µM],–
OC(CNc1ccccc1)COc1ccc(OCC(O)CNc2ccccc2)cc1 (centres undefined),inconclusive: -36.8%,–
Cc1[nH]n(-c2ccccc2)c(=O)c1/C=N/N(C)c1ccccc1,inconclusive: 2.04%,–
O=C(NCc1ccccc1Cl)C(=O)NCC(c1cccs1)S(=O)(=O)c1ccccc1 (centres undefined),inconclusive: -7.53% [at 46 µM],–
COc1ccc(Oc2ccc(/C=C/C(=O)c3ccc(O)cc3)cc2[N+](=O)[O-])cc1,inconclusive: 138%,–
Cc1cccc(-n2ncc(C(=O)Nc3ccc4c(c3)OCO4)c2C2CCN(C(=O)OC(C)(C)C)CC2)c1,–,"inconclusive: 35.5 µM [falling, single point]"
Oc1cc2c(c(Cl)c1O)CCNCC2c1ccccc1 (centres undefined),inconclusive: -40.9%,–
O=C1NC(=Nc2ccc(Cl)cc2)SC1Cc1cc(Cl)ccc1Cl (centres undefined),–,"inconclusive: 35.5 µM [falling, single point]"
CN(C)S(=O)(=O)c1ccc(NC(=O)Cc2ccc(S(=O)(=O)N3CCOCC3)s2)cc1,inactive: -28.1% [at 46 µM],–
O=C(Nc1ccc(F)cc1)OCCN1CCN(Cc2ccccc2)CCC1=O,–,"inconclusive: 35.5 µM [fluorescent, single point]"
COc1cccc(-c2nc(NCCN3CCOCC3)c3ccccc3n2)c1,inactive: -22.9%,–
CC(C)N1CCC2(CC1)N=C(c1ccc3c(c1)OCO3)CC(c1cc(Cl)ccc1O)N2 (centres undefined),–,"inconclusive: 35.5 µM [inhibitor, single point]"
Cc1ccc(NC(=S)NCCSc2ccc(Cl)cc2)c(C)c1,inconclusive: -50.2%,–
CC1(C)Cc2c(c(=S)nc(-c3ccccc3)n2CCOCCO)CO1,inactive: 2.02%,–

SMILES,"ratio change, negative = inhibition",Potency
O=c1cc(CCl)nc2sc3ccccc3n12,inconclusive: -14.6% [at 9.22 µM],–
COc1ccccc1Nc1nnc(Cc2ccccc2)c(=O)[nH]1,inconclusive: 23.5% [at 9.22 µM],–
C/C(=C1/SC(N2CCCC2)=NC1=O)c1ccc(Br)cc1,–,"inconclusive: 12.6 µM [inhibitor, single point]"
COc1ccc2[nH]cc(CCNc3ccnc(-c4ccccc4C)n3)c2c1,inconclusive: -19.7%,–
CCc1ccc2c(c1)/C(=C/C(=O)c1cccs1)C(=O)N2,inactive: 9.77%,–
COc1ccc(CCNC(=S)NC(=O)c2ccccc2)cc1OC,inactive: -8.68% [at 0.0737 µM],–
Fc1cccc(C2NC(=S)NC3=C2N2CCC3CC2)c1 (centres undefined),inactive: 4.32%,–
CCc1nnc(NC(=O)COc2ccc([N+](=O)[O-])cc2)s1,inconclusive: 8.27% [at 46 µM],–
Nc1cc(=O)[nH]c(SCC(=O)Nc2nc3ccc([N+](=O)[O-])cc3s2)n1,inconclusive: 13% [at 46 µM],–
COc1ccc(Cn2c(CO)cnc2SCc2ccc(F)cc2)cc1,inconclusive: 15.3% [at 46 µM],–
CC(C)(C)N1CC2([N+](=O)[O-])CN(C(C)(C)C)CC([N+](=O)[O-])(C1)C2,inconclusive: 17.9%,–
CS(=O)(=O)c1ccc2nc(NC(=O)CCN3C(=O)c4ccccc4C3=O)sc2c1,inconclusive: -13.8% [at 46 µM],–
CCc1nc(SCC(=O)NNC(=O)C2CCCCC2)c2ccccc2n1,inconclusive: -5.34% [at 0.0737 µM],–
CC(CNC(=O)C1CCN(C(=O)N2CCOc3ccc(Cl)cc32)CC1)c1ccccc1 (centres undefined),inconclusive: -31.1% [at 46 µM],–
CCSCc1nnc(SCC(=O)Nc2cccc(SC)c2)n1C,inactive: 2.7%,–
COC(=O)CSc1nnc(CNC(=O)c2cccs2)n1-c1cc(OC)ccc1OC,inactive: 2.12%,–
COc1cc(CC(=O)OCC(=O)Nc2sccc2C(N)=O)cc(OC)c1OC,–,"inconclusive: 11.2 µM [inhibitor, partial curve]"
Nc1cc(=O)[nH]c(SC/C=C/c2ccccc2)n1,inactive: -4.07%,–
CC(C)(C)c1ccc(C(=O)Nc2ccccc2NC(=O)c2ccco2)cc1,inactive: -6.36%,–
Cc1ccc2nc(Nc3nc(CSc4nnc(C)s4)cc(=O)[nH]3)nc(C)c2c1,–,"inconclusive: 35.5 µM [cytotoxic, single point]"
CCOC(=O)C1CCN(C(=O)c2cccc(Cl)c2)CC1,inactive: -2.23%,–
CCN(CC)c1ncnc2c1ncn2Cc1c(Cl)cccc1Cl,–,"inconclusive: 35.5 µM [falling, single point]"
FC(F)(F)c1ccc(CSc2nccn2-c2ccccc2)cc1,inactive: 17.2%,–
CC(C)CC(=O)NC(=S)Nc1sc2c(c1C(N)=O)CCC2,inconclusive: -8.91% [at 46 µM],–
CC1(C)S[C@@H]2[C@H](NC(=O)Cc3ccccc3)C(=O)N2[C@H]1C(=O)O,inconclusive: -3.46%,–
